## Screening data, single-dose tests

By UniProt entry, the sequences of proteins in these tests, tags left out. Residues count along the entry.
UniProt Q4DA54, 1-478: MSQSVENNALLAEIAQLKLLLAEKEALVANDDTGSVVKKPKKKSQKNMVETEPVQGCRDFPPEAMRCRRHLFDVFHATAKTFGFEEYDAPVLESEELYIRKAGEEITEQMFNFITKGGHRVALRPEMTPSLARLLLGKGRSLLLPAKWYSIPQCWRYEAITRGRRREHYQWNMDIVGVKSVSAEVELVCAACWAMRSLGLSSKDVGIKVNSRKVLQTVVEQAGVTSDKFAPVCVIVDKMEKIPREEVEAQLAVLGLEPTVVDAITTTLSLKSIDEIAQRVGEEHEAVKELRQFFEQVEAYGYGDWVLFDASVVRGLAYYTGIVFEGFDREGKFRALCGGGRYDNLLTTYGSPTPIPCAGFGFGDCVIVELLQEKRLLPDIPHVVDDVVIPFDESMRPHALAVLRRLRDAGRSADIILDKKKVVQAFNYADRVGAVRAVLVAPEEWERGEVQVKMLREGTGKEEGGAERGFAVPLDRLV

Data taken from ChEMBL document CHEMBL3988442, “University of Dundee, Small-Polar-MMV Screening Library” (2021).

The filed quantity is “Percent Effect” (%). The record does not define 0% and 100%; most values in the screen are far below 50% and negative numbers occur (in some assays of this library far below -100). Compounds were drawn at random from those tested, without regard to their results.

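Enzyme assay of histidyl-tRNA synthetase; the read-out is not stated. Target: Histidine-tRNA ligase, Trypanosoma cruzi CL Brener (UniProt Q4DA54). Concentration: 30 µM. Direction is inferred from retests: higher values go with stronger inhibition. About 69,000 compounds were tested under these conditions; 0.045% (about 31) showed 50% or more at least once.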

* Cc1c(Cl)c(CN2CCCC2Cn2cncn2)nc2ccccc12 (stereo not shown) : -0.8403%
* CN(C)C(=O)CN1CCCC(Cc2ccc(N3CCCC3)nn2)C1 (stereo not shown) : -2.239%
* O=C(CN1CCOC(CNc2cccnn2)C1)N1CCCCC1 (stereo not shown) : 19.43%
* COc1cccc(OCC(=O)N2CCCSCC2CN2CCOCC2)c1 (stereo not shown) : -2.062%
* CS(=O)(=O)N1CCc2[nH]cnc2C12CCN(C(=O)c1cccnc1)CC2 : 2.041%
* Clc1cc(Cl)cc(OCCN2CCC(n3cncn3)CC2)c1 : 16%
* O=C(CCc1cncc(F)c1)NS(=O)(=O)c1ccc(F)cc1F : 10%
* COCCc1noc(Cn2c(=O)[nH]c3ccccc32)n1 : -2.97%
* CN(C)C(=O)CO[C@H]1COCCN(C2CCOCC2)C1 : 5.473%
* O=C(CS(=O)(=O)c1ccc(Cl)cc1)NC1CCCc2ccccc21 (stereo not shown) : 1.622%
* Cc1cc(C)n(Cc2ccc(-c3noc(C(=O)NC[C@@H](C)O)n3)cc2)n1 : 4.95%
* Cc1cccc(C(C)C)c1NC(=O)CN(C)C(C)c1nccs1 (stereo not shown) : 0.5291%
* Cc1ccc(C(=O)N2C[C@@H]3CCCO[C@@H]3[C@H](N3CCCC3)C2)cn1 : 9.677%
* CC(C(=O)Nc1cccc(Cl)c1)N1CCN(Cc2ncc[nH]2)CC1 (stereo not shown) : 9.135%
* O=C(CCN1CCOC(Cn2cccn2)C1)NC1CCCCC1 (stereo not shown) : 8.262%
* CC(=O)Nc1cccc(OCCNC(=O)N(C)Cc2ccco2)c1 : 4.348%
* Cc1cccc(-n2c(C)cc(=O)[nH]c2=O)c1C : -0.9901%
* CC(C)(C)n1ncc(C(=O)NCCCC(N)=O)c1C(F)(F)F : 3.922%
* COC(=O)N1CCC(NC(=O)c2cc(S(N)(=O)=O)ccc2C)CC1 : 13%
* Cc1n[nH]c(C)c1C1CCCN1C(=O)NCC(=O)NC(C)(C)C (stereo not shown) : 1.653%
* N#CC1COCCN1S(=O)(=O)c1ccc2c(c1)CCC2 (stereo not shown) : 3.448%
* Cc1cc(C)n(C2CCCN(C(=O)c3cnc4onc(C)c4c3)C2)n1 (stereo not shown) : 2.642%
* CC(C)(C)CC(NC(=O)N1CCC(C(N)=O)CC1)C(F)(F)F (stereo not shown) : 3.704%
* CC(C)C1CN(S(=O)(=O)c2cccc(C#N)c2)CCS1 (stereo not shown) : 4.04%
* Cc1noc(C2CCN(c3oc(C)nc3C#N)CC2)n1 : 2.439%
* Cn1cc(C(=O)NCCCN2CCCCCC2=O)c(-c2cccnc2)n1 : 6.404%
* COc1ccc(Cl)cc1-c1cc(NC(=O)C2CNC(=O)N2)[nH]n1 (stereo not shown) : 5.946%
* Cc1noc(C)c1CN1CCC(NC(=O)OC(C)(C)C)CC1 : -0.9804%
* C[C@@H]1CN(S(=O)(=O)N2CCCCCC2)C[C@@]1(O)C1CCC1 : -2.469%
* CC(=O)N1CCCC2(CCN(Cc3ccc(Cl)c(F)c3)C2)C1 (stereo not shown) : 6.952%
* Cc1nc2c(c(C)c1CC(=O)NCc1ccc(F)cc1)c(=O)[nH]n2C : -15.45%
* CC(C)NC(=O)[C@H]1C[C@@H]2[C@@H](C1)OCCN2Cc1cccs1 : 3.483%
* CCCc1cc(C(=O)N(Cc2cccnc2)C[C@@H]2CCC(=O)N2)no1 : 10.53%
* CC(CN1CCCC1)C(=O)N1CCC(c2nccn2CC2CC2)CC1 (stereo not shown) : 2.5%
* Cc1ccccc1CN(Cc1ccccn1)C(=O)CN(C)C(C)C : 4.545%

The last 3 entries again:

| compound | percent effect |
|---|---|
| `CCCc1cc(C(=O)N(Cc2cccnc2)C[C@@H]2CCC(=O)N2)no1` | 10.53% |
| `CC(CN1CCCC1)C(=O)N1CCC(c2nccn2CC2CC2)CC1` (stereo not shown) | 2.5% |
| `Cc1ccccc1CN(Cc1ccccn1)C(=O)CN(C)C(C)C` | 4.545% |